# The source gives many values for each of these; only a part stands here.
# System: patients with major depressive disorder
# Assay: Open-label trials of adjunctive agomelatine 25 mg at bedtime in MDD; baseline EEG models predicting change in MADRS
# Format: in vivo, human
structure (smiles),measurement,setting,value
"COc1ccc2cccc(CCNC(C)=O)c2c1 [agomelatine, N-[2-(7-methoxynaphthalen-1-yl)ethyl]acetamide]","d (Cohen's d, prediction of agomelatine outcome)","REC, Approximate Entropy, lower gamma, Week 6",0.54
same,"d (Cohen's d, prediction of agomelatine outcome)","REC, Approximate Entropy, lower gamma, Week 8",0.69
same,"d (Cohen's d, prediction of agomelatine outcome)","REC, Detrended Fluctuation Analysis, lower beta, Week 6",0.35
same,"d (Cohen's d, prediction of agomelatine outcome)","REC, Detrended Fluctuation Analysis, lower beta, Week 8",0.31
same,"d (Cohen's d, prediction of agomelatine outcome)","REC, Detrended Fluctuation Analysis, upper beta, Week 6",0.27
same,"d (Cohen's d, prediction of agomelatine outcome)","REC, Detrended Fluctuation Analysis, upper beta, Week 8",0.29
same,"d (Cohen's d, prediction of agomelatine outcome)","REC, Higuchi Fractal Dimension, lower beta, Week 6",0.17
same,"d (Cohen's d, prediction of agomelatine outcome)","REC, Higuchi Fractal Dimension, lower beta, Week 8",0.09
same,"d (Cohen's d, prediction of agomelatine outcome)","REC, Higuchi Fractal Dimension, lower gamma, Week 6",0.50
same,"d (Cohen's d, prediction of agomelatine outcome)","REC, Higuchi Fractal Dimension, lower gamma, Week 8",0.47
same,"d (Cohen's d, prediction of agomelatine outcome)","REC, Higuchi Fractal Dimension, upper beta, Week 6",0.08
same,"d (Cohen's d, prediction of agomelatine outcome)","REC, Higuchi Fractal Dimension, upper beta, Week 8",0.20
same,"d (Cohen's d, prediction of agomelatine outcome)","REC, Higuchi Fractal Dimension, upper gamma, Week 6",0.22
same,"d (Cohen's d, prediction of agomelatine outcome)","REC, Higuchi Fractal Dimension, upper gamma, Week 8",0.25
same,"d (Cohen's d, prediction of agomelatine outcome)","REC, Katz Fractal Dimension, lower beta, Week 6",0.29
same,"d (Cohen's d, prediction of agomelatine outcome)","REC, Katz Fractal Dimension, lower beta, Week 8",0.24
same,"d (Cohen's d, prediction of agomelatine outcome)","REC, Katz Fractal Dimension, lower gamma, Week 6",0.20
same,"d (Cohen's d, prediction of agomelatine outcome)","REC, Katz Fractal Dimension, lower gamma, Week 8",0.19
same,"d (Cohen's d, prediction of agomelatine outcome)","REC, Katz Fractal Dimension, upper beta, Week 6",0.39
same,"d (Cohen's d, prediction of agomelatine outcome)","REC, Katz Fractal Dimension, upper beta, Week 8",0.36
same,"d (Cohen's d, prediction of agomelatine outcome)","REC, Katz Fractal Dimension, upper gamma, Week 6",0.32
same,"d (Cohen's d, prediction of agomelatine outcome)","REC, Katz Fractal Dimension, upper gamma, Week 8",0.43
same,"d (Cohen's d, prediction of agomelatine outcome)","REC, Largest Lyapunov Exponent, upper alpha, Week 6",0.22
same,"d (Cohen's d, prediction of agomelatine outcome)","REC, Largest Lyapunov Exponent, upper alpha, Week 8",0.26
same,"d (Cohen's d, prediction of agomelatine outcome)","REC, Largest Lyapunov Exponent, upper gamma, Week 6",0.46
same,"d (Cohen's d, prediction of agomelatine outcome)","REC, Largest Lyapunov Exponent, upper gamma, Week 8",0.62
same,"d (Cohen's d, prediction of agomelatine outcome)","REC, Lempel-Ziv Complexity, lower gamma, Week 6",0.26
same,"d (Cohen's d, prediction of agomelatine outcome)","REC, Lempel-Ziv Complexity, lower gamma, Week 8",0.37
same,"d (Cohen's d, prediction of agomelatine outcome)","REC, Lempel-Ziv Complexity, upper alpha, Week 6",0.07
same,"d (Cohen's d, prediction of agomelatine outcome)","REC, Lempel-Ziv Complexity, upper alpha, Week 8",0.02
same,"d (Cohen's d, prediction of agomelatine outcome)","REC, Modified Multiscale Entropy, lower alpha, Week 6",0.24
same,"d (Cohen's d, prediction of agomelatine outcome)","REC, Modified Multiscale Entropy, lower alpha, Week 8",0.30
same,"d (Cohen's d, prediction of agomelatine outcome)","REC, Modified Multiscale Entropy, lower gamma, Week 6",0.37
same,"d (Cohen's d, prediction of agomelatine outcome)","REC, Modified Multiscale Entropy, lower gamma, Week 8",0.54
same,"d (Cohen's d, prediction of agomelatine outcome)","REC, Modified Multiscale Entropy, upper alpha, Week 6",0.51
same,"d (Cohen's d, prediction of agomelatine outcome)","REC, Modified Multiscale Entropy, upper alpha, Week 8",0.62
same,"d (Cohen's d, prediction of agomelatine outcome)","REC, Multiscale Entropy, lower gamma, Week 1",0.18
same,"d (Cohen's d, prediction of agomelatine outcome)","REC, Multiscale Entropy, lower gamma, Week 2",0.24
same,"d (Cohen's d, prediction of agomelatine outcome)","REC, Multiscale Entropy, lower gamma, Week 4",0.39
same,"d (Cohen's d, prediction of agomelatine outcome)","REC, Multiscale Entropy, lower gamma, Week 6",0.49
same,"d (Cohen's d, prediction of agomelatine outcome)","REC, Multiscale Entropy, lower gamma, Week 8",0.57
same,"d (Cohen's d, prediction of agomelatine outcome)","REC, Multiscale Entropy, upper alpha, Week 2",0.08
same,"d (Cohen's d, prediction of agomelatine outcome)","REC, Multiscale Entropy, upper alpha, Week 4",0.15
same,"d (Cohen's d, prediction of agomelatine outcome)","REC, Multiscale Entropy, upper alpha, Week 6",0.20
same,"d (Cohen's d, prediction of agomelatine outcome)","REC, Multiscale Entropy, upper alpha, Week 8",0.24
same,"d (Cohen's d, prediction of agomelatine outcome)","REC, Permutation Entropy, lower gamma, Week 1",0.38
same,"d (Cohen's d, prediction of agomelatine outcome)","REC, Permutation Entropy, lower gamma, Week 2",0.35
same,"d (Cohen's d, prediction of agomelatine outcome)","REC, Permutation Entropy, lower gamma, Week 4",0.33
same,"d (Cohen's d, prediction of agomelatine outcome)","REC, Permutation Entropy, lower gamma, Week 6",0.27
same,"d (Cohen's d, prediction of agomelatine outcome)","REC, Permutation Entropy, lower gamma, Week 8",0.24
same,"d (Cohen's d, prediction of agomelatine outcome)","REC, Tsallis Entropy, upper alpha, Week 1",0.03
same,"d (Cohen's d, prediction of agomelatine outcome)","REC, Tsallis Entropy, upper alpha, Week 2",0.04
same,"d (Cohen's d, prediction of agomelatine outcome)","REC, Tsallis Entropy, upper alpha, Week 4",0.06
same,"d (Cohen's d, prediction of agomelatine outcome)","REC, Tsallis Entropy, upper alpha, Week 6",0.08
same,"d (Cohen's d, prediction of agomelatine outcome)","REC, Tsallis Entropy, upper alpha, Week 8",0.10
same,"d (Cohen's d, prediction of agomelatine outcome)","REO, Approximate Entropy, lower gamma, Week 6",0.22
same,"d (Cohen's d, prediction of agomelatine outcome)","REO, Approximate Entropy, lower gamma, Week 8",0.35
same,"d (Cohen's d, prediction of agomelatine outcome)","REO, Detrended Fluctuation Analysis, delta, Week 1",0.07
same,"d (Cohen's d, prediction of agomelatine outcome)","REO, Detrended Fluctuation Analysis, delta, Week 2",0.10
same,"d (Cohen's d, prediction of agomelatine outcome)","REO, Detrended Fluctuation Analysis, delta, Week 4",0.18
same,"d (Cohen's d, prediction of agomelatine outcome)","REO, Detrended Fluctuation Analysis, delta, Week 6",0.26
same,"d (Cohen's d, prediction of agomelatine outcome)","REO, Detrended Fluctuation Analysis, delta, Week 8",0.32
same,"d (Cohen's d, prediction of agomelatine outcome)","REO, Detrended Fluctuation Analysis, lower beta, Week 1",0.03
same,"d (Cohen's d, prediction of agomelatine outcome)","REO, Detrended Fluctuation Analysis, lower beta, Week 2",0.06
same,"d (Cohen's d, prediction of agomelatine outcome)","REO, Detrended Fluctuation Analysis, lower beta, Week 4",0.12
same,"d (Cohen's d, prediction of agomelatine outcome)","REO, Detrended Fluctuation Analysis, lower beta, Week 6",0.18
same,"d (Cohen's d, prediction of agomelatine outcome)","REO, Detrended Fluctuation Analysis, lower beta, Week 8",0.23
same,"d (Cohen's d, prediction of agomelatine outcome)","REO, Detrended Fluctuation Analysis, upper gamma, Week 6",0.32
same,"d (Cohen's d, prediction of agomelatine outcome)","REO, Detrended Fluctuation Analysis, upper gamma, Week 8",0.31
same,"d (Cohen's d, prediction of agomelatine outcome)","REO, Higuchi Fractal Dimension, delta, Week 6",0.26
same,"d (Cohen's d, prediction of agomelatine outcome)","REO, Higuchi Fractal Dimension, delta, Week 8",0.41
same,"d (Cohen's d, prediction of agomelatine outcome)","REO, Higuchi Fractal Dimension, lower beta, Week 6",0.06
same,"d (Cohen's d, prediction of agomelatine outcome)","REO, Higuchi Fractal Dimension, lower beta, Week 8",0.07
same,"d (Cohen's d, prediction of agomelatine outcome)","REO, Higuchi Fractal Dimension, upper gamma, Week 6",0.16
same,"d (Cohen's d, prediction of agomelatine outcome)","REO, Higuchi Fractal Dimension, upper gamma, Week 8",0.20
same,"d (Cohen's d, prediction of agomelatine outcome)","REO, Katz Fractal Dimension, delta, Week 6",0.18
same,"d (Cohen's d, prediction of agomelatine outcome)","REO, Katz Fractal Dimension, delta, Week 8",0.23
same,"d (Cohen's d, prediction of agomelatine outcome)","REO, Katz Fractal Dimension, lower beta, Week 6",−0.07
same,"d (Cohen's d, prediction of agomelatine outcome)","REO, Katz Fractal Dimension, lower beta, Week 8",−0.18
same,"d (Cohen's d, prediction of agomelatine outcome)","REO, Katz Fractal Dimension, upper beta, Week 6",0.32
same,"d (Cohen's d, prediction of agomelatine outcome)","REO, Katz Fractal Dimension, upper beta, Week 8",0.35
same,"d (Cohen's d, prediction of agomelatine outcome)","REO, Largest Lyapunov Exponent, upper alpha, Week 6",0.26
same,"d (Cohen's d, prediction of agomelatine outcome)","REO, Largest Lyapunov Exponent, upper alpha, Week 8",0.34
same,"d (Cohen's d, prediction of agomelatine outcome)","REO, Largest Lyapunov Exponent, upper gamma, Week 6",0.26
same,"d (Cohen's d, prediction of agomelatine outcome)","REO, Largest Lyapunov Exponent, upper gamma, Week 8",0.43
same,"d (Cohen's d, prediction of agomelatine outcome)","REO, Lempel-Ziv Complexity, lower gamma, Week 6",0.17
same,"d (Cohen's d, prediction of agomelatine outcome)","REO, Lempel-Ziv Complexity, lower gamma, Week 8",0.31
same,"d (Cohen's d, prediction of agomelatine outcome)","REO, Lempel-Ziv Complexity, theta, Week 6",0.19
same,"d (Cohen's d, prediction of agomelatine outcome)","REO, Lempel-Ziv Complexity, theta, Week 8",0.22
same,"d (Cohen's d, prediction of agomelatine outcome)","REO, Lempel-Ziv Complexity, upper beta, Week 6",0.35
same,"d (Cohen's d, prediction of agomelatine outcome)","REO, Lempel-Ziv Complexity, upper beta, Week 8",0.40
same,"d (Cohen's d, prediction of agomelatine outcome)","REO, Modified Multiscale Entropy, upper beta, Week 6",0.43
same,"d (Cohen's d, prediction of agomelatine outcome)","REO, Modified Multiscale Entropy, upper beta, Week 8",0.61
same,"d (Cohen's d, prediction of agomelatine outcome)","REO, Multiscale Entropy, lower gamma, Week 6",0.30
same,"d (Cohen's d, prediction of agomelatine outcome)","REO, Multiscale Entropy, lower gamma, Week 8",0.52
same,"d (Cohen's d, prediction of agomelatine outcome)","REO, Multiscale Entropy, upper beta, Week 1",−0.09
same,"d (Cohen's d, prediction of agomelatine outcome)","REO, Multiscale Entropy, upper beta, Week 2",0.02
same,"d (Cohen's d, prediction of agomelatine outcome)","REO, Multiscale Entropy, upper beta, Week 4",0.20
same,"d (Cohen's d, prediction of agomelatine outcome)","REO, Multiscale Entropy, upper beta, Week 6",0.36
same,"d (Cohen's d, prediction of agomelatine outcome)","REO, Multiscale Entropy, upper beta, Week 8",0.54
same,"d (Cohen's d, prediction of agomelatine outcome)","REO, Tsallis Entropy, lower beta, Week 1",−0.18
same,"d (Cohen's d, prediction of agomelatine outcome)","REO, Tsallis Entropy, lower beta, Week 2",−0.09
same,"d (Cohen's d, prediction of agomelatine outcome)","REO, Tsallis Entropy, lower beta, Week 4",0.02
same,"d (Cohen's d, prediction of agomelatine outcome)","REO, Tsallis Entropy, lower beta, Week 6",0.13
same,"d (Cohen's d, prediction of agomelatine outcome)","REO, Tsallis Entropy, lower beta, Week 8",0.23
same,"d (Cohen's d, prediction of agomelatine outcome)","REO, Tsallis Entropy, lower gamma, Week 1",0.21
same,"d (Cohen's d, prediction of agomelatine outcome)","REO, Tsallis Entropy, lower gamma, Week 2",0.18
same,"d (Cohen's d, prediction of agomelatine outcome)","REO, Tsallis Entropy, lower gamma, Week 4",0.16
same,"d (Cohen's d, prediction of agomelatine outcome)","REO, Tsallis Entropy, lower gamma, Week 6",0.15
same,"d (Cohen's d, prediction of agomelatine outcome)","REO, Tsallis Entropy, lower gamma, Week 8",0.13

# Source: US20250049738A1, “METHOD OF TREATMENT AND SELECTION OF PATIENTS BENEFITING FROM AGOMELATINE BASED ON EEG MEASUREMENTS” (Alto Neuroscience, Inc., priority 2023, published 2025)
